In paper PMC10163288:
This is one part of the list.

B1: il2ra_site1_2b5i_normal_mot_HHH_b1_05188_af2_000000065_0001_43_56_H_._HHH_b1_02449_af2_0001_0000400038_0000001_0_af2pred_0001_af2pred (protein)
chain: SSSSSDEDEEVLEVYRQASRAYSNGNPEEAEELLREALKLAEEANNPVAVEELRRFLERLSSSSS
B2: il2ra_site2_3nfp_normal_mot_HHH_b1_07095_000000265_0001_1_20_H_._HHH_b2_06077_af2_0001_0000200003_0000001_0 (protein)
chain: SSSSDIEEEVEKLLEKAKELLEEGDEEEARRALARAAHLAAELRDFELFALVNEVLELLGSSSSS
B3: il2ra_site1_2b5i_normal_mot_HHH_b1_02271_000000068_0001_1_16_H_._HHH_b1_04985_0001_0000600019_0000001_0_af2pred_dldesign_0_af2pred (protein)
chain: SSSSSSRREALLEAEKLYKESFKVSPEEAKELLKKLKEIAEKYKDPTIAKAIEDLEYFLKSSSSS
B4: il2ra_site2_3nfp_normal_mot_HHH_b2_07065_af2_000000058_0001_38_52_H_._HHH_b2_01690_0001_0000300026_0000001_0 (protein)
chain: SSSSDDREEHLRAALLLLEEALKEGNEELFRRIAELIEKAAEDAKDEEVEERVRELLEEFDSSSS
B5: il2ra_site1_2b5i_normal_mot_HHH_b1_07881_af2_000000049_0001_1_19_H_._HHH_b2_01648_af2_0002_0000300029_0000001_0_af2pred_0001_af2pred (protein)
chain: SSSSDEFERLLELYREASRLFRNGNPEEARELLEEAEELAKELGDELARKQLRHLLERLRSSSSS
B6: il2ra_site1_3nfp_normal_mot_40ac32ce855e0fd9c7bcc7eb247393e9_0001_000000113_0001_1_14_H_._HHH_b1_06808_af2_0001_0000600035_0000001_0 (protein)
chain: SSSSSDAVEYAVEALVKDFNLSEEQKEELEELAEELERRGVNAREVFRILLERAKELANSSSSSS
B7: il2ra_site2_3nfp_sap_20_mot_HHH_b2_08245_000000023_0001_41_55_H_._HHH_b2_02790_0001_0000100006_0000001_0_0001 (protein)
chain: SSSSSDEEEERVEELLERAKHIEDDEERRRLLAEAAHLAFENNNSELFFAVAEVLFELEQSSSSS
B8: il2ra_site1_3nfp_sap_12_mot_HHH_b2_05615_000000234_0001_23_39_H_._HHH_b1_03367_0001_0000300010_0000001_0_0001 (protein)
chain: SSSDREEVAEEVVRRLVEELGLDRAAKRALERAAEKAIEMGFSPEEIEKALEDAARMFRRIVSSS
B9: il2ra_site1_2b5i_normal_mot_HHH_b2_04910_000000118_0001_1_19_H_._HHH_b1_02796_0001_0000200016_0000001_0_af2pred_dldesign_0_af2pred (protein)
chain: SSSSSKGEEIRRLIREADALYKKGDPRAIDVLERALELAKEAKMPLDVKMVESALKQLRVESSSS
B10: il2ra_site1_1z92_normal_mot_01209686ea234b34325f918445e6eade_0001_af2_000000154_0001_18_33_H_._a4d94f43bc0d423f3d0edd362bd39fea_0001_af2_0001_0000200009_0000001 … (protein)
chain: DLEEEIRRVAEELGIPPEELEVFEKDLKAVEKLVGDPELALKMLLNAAKKAGNEELFQLAELVLK
B11: il2ra_site1_1z92_normal_mot_HHH_b2_04985_000000147_0001_1_19_H_._HHH_b1_01979_0001_0000100006_0000001_0_af2pred_0001_af2pred_swapped (protein)
chain: SSSSSKLEKNAEYVVELAVKLAGLDEEEKRQLEEVARELVERGLSFREINKELDRVANELSSSSS
B12: il2ra_site1_3nfp_normal_mot_HHH_b1_07440_af2_000000231_0001_1_19_H_._HHH_b1_08742_af2_0001_0000200019_0000001_0_af2pred_0001_af2pred_1_swapped (protein)
chain: SSSSSEKAEELFEEARELIEELLERGDPREASRVVEEAARRLFRLGNPELAEELLEYARRSSSSS
B13: il2ra_site2_3nfp_sap_22_mot_HHH_b1_07242_000000112_0001_19_39_H_._dbaaacb3030748eb94c4e142aa50db7a_0001_0001_0000400037_0000001_0_0001_af2pred_0001_af2pred (protein)
chain: SSSDEEERIRELLKEIEELLKEGNDEEAEELLEEARKLIRELGDIELLVELLELRELVEEKSSSS
B14: il2ra_site1_3nfp_sap_6_mot_58e3eb3031e6d57439b1b965989c2868_0001_af2_000000159_0001_19_34_H_._8a6a1400aecb8ca28daff083fb65bf78_0001_1_af2_0001_0000300017_000000 … (protein)
chain: SSSSDEELQELAREIDKAFKNGDREKAEELIEKAEELAEELGDPDARKQLKYLLEALRRSKSSSS
B15: il2ra_site2_2erj_normal_mot_HHH_b2_07139_000000086_0001_40_57_H_._HHH_b2_03810_af2_0001_0001000014_0000001_0 (protein)
chain: SSSSDDEKEVRELLEEAEEAWKEGDLELVFELLSRALHVASQSQDPELQELVIEFFEELTSSSSS
B16: il2ra_site2_3nfp_sap_19_mot_HHH_eva_0376_af2_000000005_0001_25_42_H_._9a8b2cb7a75b34899a74317597b2dbd0_0001_1_0001_0000500026_0000001_0_0001 (protein)
chain: SSSSDVEELLERVKELIEEGDLSEAAHVLMEAAERVRELNDPELFKKLLELYEELAREYRSSSSS
B17: il2ra_site1_2b5i_normal_mot_HHH_b1_02271_000000068_0001_1_16_H_._HHH_b1_03521_af2_0001_0000500042_0000001_0_af2pred_dldesign_0_af2pred (protein)
chain: SSSSSAKRAEIERLVAEAERLKKEGKRREALELLEEAYKLADELGDEELADELEERAKKISSSSS
B18: il2ra_site2_2erj_normal_mot_76e6e8f7232a9e65eeaab5ff8ecb4c96_0001_000000231_0001_17_31_H_._HHH_b2_04542_0001_0000300016_0000001_0 (protein)
chain: SSSSSELEERVQELLEEARKLLENGNPEEAASAVIEAAALAVRNRDPELEKEVRELFTEIYSSSS
B19: il2ra_site1_3nfp_normal_mot_HHH_b2_01814_000000033_0001_1_16_H_._HHH_b1_05657_0001_0000200019_0000001_0_af2pred_0001_af2pred_1_swapped (protein)
chain: SSSSTEESRRARELIRRISELIREGNPEEAEELLEELEELARERGSRAAELFVRRLRRHLSSSSS

The binders below were run against il2ra, P01589 (assay: yeast display titration).

Apparent Kd, inactive:
B1 no binding seen
B2 no binding seen
B3 no binding seen
B4 no binding seen
B5 no binding seen
B6 no binding seen
B7 no binding seen
B8 no binding seen
B9 no binding seen
B10 no binding seen
B11 no binding seen
B12 no binding seen
B13 no binding seen
B14 no binding seen
B15 no binding seen
B16 no binding seen
B17 no binding seen
B18 no binding seen
B19 no binding seen

For convenience, some entries already given:
Apparent Kd, inactive:
B9 no binding seen
B10 no binding seen
